Measured values as given in PubChem BioAssay AID2685 (National Center for Advancing Translational Sciences (NCATS), 2010).
The other results are listed elsewhere or left out. Shown are side measurements of this screen, not its main read-out; they come without a call. Most of these compounds were active or inconclusive in the main read-out, so they are no random draw. The note in brackets gives the kind of curve behind each potency; many fits are weak.

Assay: qHTS Assay for Lipid Storage Modulators in Drosophila S3 Cells;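 as to cell number change: cells counted by Cell Tracker Red CMTPX staining in the red channel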
Settings: BODIPY lipid droplet fluorescence, 18-24 h; for cell number change: measured here: cell count max response, cells fed with added oleic acid
Summary of the method: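 Drosophila S3 cells got compounds at several concentrations plus oleic acid (400 uM solution). Laser-scanning cytometry with 488 nm excitation read lipid droplets at 500-530 nm and cells at 575-640 nm. Percent activity was relative to 20 uM Triacsin C.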

[1] = measured here: lipid fluorescence (Fed channel) AC50, cells fed with added oleic acid
[2] = measured here: cell number channel AC50, cells fed with added oleic acid

Row | SMILES | cell number change [%] | AC50 [1] | AC50 [2]
1 | Cc1ccc(NC(=O)CN(C)C(=O)Cc2ccccc2F)cc1 | -9.21 | 6310 nM [falling, single point] | –
2 | Cc1cc(NC(=O)CCC(=O)N(Cc2ccco2)C2(C(=O)NC3CCCCC3)CCN(C)CC2)no1 | -37.7 | 18400 nM [falling, single point] | 16400 nM [falling, single point]
3 | CN1CC2(C)OC(=O)C(Cl)=C2CC1c1ccccc1 (stereo unspecified) | -21.1 | 130 nM [falling, full curve, poor fit] | –
4 | CC(=O)c1cccc(NC(=S)NC(=O)c2ccc(C)cc2)c1 | -1.34 | 517 nM [falling, full curve] | –
5 | CC(C)NC(=O)CSc1ccccc1C(=O)N1CCN(S(=O)(=O)/C=C/c2ccccc2)CC1 | -0.82 | – | –
6 | O=C(N/N=C/c1ccc(O)cc1)c1[nH]c2ccc(Br)cc2c1-c1ccccc1 | 4.65 | 116 nM [falling, full curve, poor fit] | –
7 | CNC(=S)N/N=C/c1c(C)nn(-c2ccc(F)cc2)c1Cl | 9.54 | – | –
8 | COc1ccc(CNC(=O)CSc2ccsc2[N+](=O)[O-])cc1 | 19.6 | – | –
9 | N=c1ccn2c(n1)OC1C(O)C(CO)OC12 (stereo unspecified) | -2.72 | 29100 nM [falling, single point] | –
10 | Cc1ccc(NC(=S)N(Cc2ccc(Br)cc2)Cc2ccc(C(=O)O)cc2)cc1C | 0.323 | 1460 nM [falling, partial curve, poor fit] | 1460 nM [falling, partial curve]
11 | Cc1ccc(C)c(S(=O)(=O)N2CCN(C(=O)CCNS(=O)(=O)c3ccccc3)CC2)c1 | 4.46 | – | 6510 nM [rising, single point]
12 | Cc1nnc(SCc2cccc(CSc3nnc(C)s3)c2)s1 | 32.9 | – | 16400 nM [rising, single point]
13 | Cc1ccc(CS(=O)Cc2ccc(C(=O)NCCc3ccccc3)o2)cc1 (stereo unspecified) | – | 29100 nM [falling, single point] | –
14 | CCN1CCN(C(=O)c2cc3c(s2)-c2ccccc2S(=O)(=O)C3)CC1 | 42 | – | 8200 nM [rising, single point]
15 | Nc1ccc2nc3c(=O)[nH]c(=S)[nH]c3nc2c1 | -90.6 | 29100 nM [falling, single point] | –
16 | CC(C)CC1NC(=O)N(CC(=O)Nc2cccc(Br)c2)C1=O (stereo unspecified) | -9.94 | 461 nM [falling, full curve, poor fit] | –
17 | COc1cc(C(=O)Nc2ccc3c(c2)C(=O)c2ccccc2C3=O)cc(OC)c1OC | 8.83 | 820 nM [rising, full curve, poor fit] | –
18 | COc1ccc(-c2c(C)c3ccc(O)cc3oc2=O)cc1OC | -1.19 | – | –
19 | NC(=O)c1nn(CC(=O)Nc2cccc(S(=O)(=O)N3CCCCCC3)c2)c(=O)c2ccccc12 | -7.7 | – | –
20 | CCC(C(=O)NCc1ccco1)N(Cc1cccs1)C(=O)CNS(=O)(=O)c1ccccc1 (stereo unspecified) | 1.18 | – | –
21 | O=C(COC(=O)[C@@H]1CC(O)CN1S(=O)(=O)c1ccccc1[N+](=O)[O-])c1ccccc1 (stereo partly specified) | 5.55 | – | –

Row | SMILES | cell number change [%] | AC50 [1] | AC50 [2]
22 | CCOc1ccc(NC(=S)N2CCCCCC2)cc1 | 0.566 | 4.11 nM [rising, full curve, poor fit] | –
23 | O=C(NC(=S)Nc1ncc(Br)cc1Br)c1cncc(Br)c1 | – | 20600 nM [rising, partial curve, poor fit] | 326 nM [rising, full curve, poor fit]
24 | CC(C)(C)C1CCC2(CC1)C(C#N)=C(SCC(=O)Nc1ccccc1)NC(=O)C2C#N (stereo unspecified) | 8.69 | 20600 nM [rising, partial curve, poor fit] | –
25 | O=[N+]([O-])c1cc(S(=O)(=O)NCCCN2CCOCC2)ccc1Cl | 44.5 | 5.17 nM [falling, full curve, poor fit] | 29100 nM [rising, single point]
26 | COc1cc(OC)cc(C(=O)N2CCC(N3CCN(c4ccccc4OC)CC3)CC2)c1 | – | 2060 nM [rising, single point] | 580 nM [rising, full curve]
27 | Cc1ccc(C)c(NS(=O)(=O)c2cc(C(=O)NCCSC3CCCCC3)ccc2C)c1 | -0.153 | 1840 nM [falling, partial curve, poor fit] | –
28 | O=C(COc1ccc(/C=N/NC(=O)c2ccccc2O)cc1)Nc1ccc([N+](=O)[O-])cc1 | -43.7 | 116 nM [rising, partial curve, poor fit] | 3660 nM [falling, full curve]
29 | Cn1c(CNC(=O)CCNC(=O)c2cccc(F)c2)cc(=O)n(C)c1=O | -9.91 | – | –
30 | O=C(NC(=S)N1CCN(c2ccc([N+](=O)[O-])cc2)CC1)c1ccccc1 | 0.273 | 1640 nM [falling, partial curve] | –
31 | CCOc1ccc(N(CC(=O)NC2CCCCC2)S(=O)(=O)c2ccc(C)cc2)cc1 | 5.56 | 29100 nM [rising, single point] | –
32 | Cc1nc2ccccn2c1C(=O)N/N=C/c1ccc([N+](=O)[O-])cc1 | 18.2 | – | –
33 | N#C/C(=C/c1ccccc1)C(=O)OCC(=O)Nc1ccccc1[N+](=O)[O-] | 8.3 | 32600 nM [rising, single point] | –
34 | Cc1ccc(Cn2c(=N)c(C(=O)NC3CCCC3)cc3c(=O)n4ccccc4nc32)cc1 | -5.67 | – | –
35 | Cc1c(C)n(C(=O)CN2CCC(C(N)=O)CC2)c2ccccc12 | -11.3 | 1160 nM [falling, full curve] | –
36 | CCOc1cccc(NC(=O)C(Cc2cccs2)c2nn[nH]n2)c1 (stereo unspecified) | 6.33 | 16400 nM [rising, single point] | –
37 | N#C/C(C(=O)NCc1ccco1)=C1/SC=C(c2ccccc2)N1c1ccccc1 | 5.94 | 2310 nM [rising, full curve] | –
38 | COc1ccc(S(=O)(=O)Cc2ccc(C(=O)N3CCC(C(N)=O)CC3)o2)cc1 | 42 | 103 nM [falling, full curve, poor fit] | 18400 nM [rising, single point]
39 | CN(C)c1nc(SCCOC(=O)Nc2ccccc2)nc(N(C)C)n1 | -23.4 | – | –
40 | C=CCc1cccc(CNc2nc3ccccc3n2CCN2CCOCC2)c1O | – | 2310 nM [rising, partial curve] | 2590 nM [rising, partial curve]
41 | Cc1nnc2n(Cc3ccccc3)c(=O)c3c4c(sc3n12)COC(C(C)C)C4 (stereo unspecified) | -10.8 | 4.61 nM [rising, full curve, poor fit] | –
42 | COc1cc(NC(=O)CN2CCCCC2C)c(C)cc1[N+](=O)[O-] (stereo unspecified) | -23.7 | – | 2910 nM [falling, partial curve, poor fit]

Some of these compounds in order of heavy-atom count, rising:
Row | SMILES | cell number change [%] | AC50 [1] | AC50 [2]
3 | CN1CC2(C)OC(=O)C(Cl)=C2CC1c1ccccc1 (stereo unspecified) | -21.1 | 130 nM [falling, full curve, poor fit] | –
16 | CC(C)CC1NC(=O)N(CC(=O)Nc2cccc(Br)c2)C1=O (stereo unspecified) | -9.94 | 461 nM [falling, full curve, poor fit] | –
31 | CCOc1ccc(N(CC(=O)NC2CCCCC2)S(=O)(=O)c2ccc(C)cc2)cc1 | 5.56 | 29100 nM [rising, single point] | –
24 | CC(C)(C)C1CCC2(CC1)C(C#N)=C(SCC(=O)Nc1ccccc1)NC(=O)C2C#N (stereo unspecified) | 8.69 | 20600 nM [rising, partial curve, poor fit] | –

(cont.)

Row | SMILES | cell number change [%] | AC50 [1] | AC50 [2]
43 | CCCCn1c(N)c(N(CC(C)C)C(=O)c2ccco2)c(=O)[nH]c1=O | -4.82 | – | –
44 | O=C(COC(=O)c1ccccc1-n1cnnn1)c1ccc(Br)cc1 | 22.9 | 32600 nM [rising, single point] | –
45 | Cn1nnc2c(N3CCCCC3)nccc21 | 0.641 | 4610 nM [rising, single point] | –
46 | CC(C)(C)c1ccc(OCC(=O)NNC(=O)CCc2ccccc2)cc1 | 154 | – | –
47 | Cc1ccccc1N(C(=O)c1cccs1)c1nc2ccccc2s1 | – | 6510 nM [rising, single point] | –
48 | O=C(c1ccc2nsnc2c1)N1CCN(c2ccc([N+](=O)[O-])cc2)CC1 | 29 | 18400 nM [rising, partial curve] | –
49 | O=S(=O)(c1ccc2c(c1)OCCO2)N1CCC(n2cnc3cc(F)ccc32)CC1 | -13.9 | – | –
50 | CCN1CCN(C(=O)Cn2ncc3c2-c2ccccc2OC3)CC1 | 11.9 | 4610 nM [rising, single point] | –
51 | Cc1ccsc1/C=N/Nc1ncc(Cl)cc1Cl | 56.8 | 2060 nM [rising, partial curve] | 5800 nM [rising, partial curve]
52 | CCOC(=O)C1(Cc2ccc(Cl)cc2)CCN(Cc2cn(CC)nc2C)CC1 | 16.4 | – | 6.51 nM [rising, full curve, poor fit]
53 | Cc1cc(C)c(C(=O)COC(=O)c2cccc(S(=O)(=O)NCc3ccccc3)c2)cc1C | 1.77 | 130 nM [falling, full curve, poor fit] | –
54 | CC1(C)OC(=O)C(=NNc2ccc(Br)cc2)C(=O)O1 | 2.2 | 20600 nM [rising, single point] | –
55 | COC(=O)Nc1ccc(S(=O)(=O)N2CCC(C(=O)N(C)C3CCCCC3)CC2)cc1 | 13.4 | 65.1 nM [falling, full curve, poor fit] | 1640 nM [rising, single point]
56 | O=S(=O)(NCCN1CCOCC1)c1cccs1 | – | 4.61 nM [falling, full curve, poor fit] | –
57 | CC(Sc1nnc(C2CC2)n1C1CC1)C(=O)NC1(C#N)CCCCC1 (stereo unspecified) | 9.58 | 4110 nM [rising, single point] | –
58 | Cc1ccccc1/C=N/n1c(C2CCCCC2)n[nH]c1=S | -22.2 | 11600 nM [falling, partial curve, poor fit] | –
59 | Cc1ccc(NC(=O)CSc2ncc3ccccn23)cc1C | -22.4 | 29100 nM [falling, single point] | –
60 | CCOc1ccc(OCCC(=O)N2CCN(S(=O)(=O)c3ccc(F)cc3)CC2)cc1 | – | 731 nM [rising, single point] | –
61 | COc1cccc(-n2nnc(S(=O)(=O)c3ccc(C)cc3)c2N)c1 | 7.79 | – | –
62 | O=C(CC(c1ccccc1)c1ccccc1)Nc1nn[nH]n1 | -1.38 | – | –
